From PubChem BioAssay AID1347426 (Functional Genomics Laboratory (NCATS/FGL), 2020) come the findings set out here.

In all, about 31,000 sequences went through this assay and about 1,400 (4.5%) were called active.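 Rule for the calls: active = median seed-adjusted z-score above 1 or below -1; inactive = the rest.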 This is one part of the list.

The nature of this assay: Novel Modifiers of Survival Motor Neuron (SMN) Protein: Gene Identification via Genome-wide siRNA Screen.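 Note: luminescence tracks full-length SMN protein made from the SMN2 reporter.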 As to conditions: HEK293T SMN2-luciferase reporter, siRNA knockdown, 72 h; actives lie on both sides. A digest of the protocol:
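Each of three siRNAs per gene is reverse-transfected (1 pmol) into reporter HEK293T cells whose luciferase output tracks SMN protein level. After 72 h culture, ONE-Glo luminescence is control-normalized, log10-transformed and MAD-standardized; Common Seed Analysis deprioritizes seed-driven hits.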
A general note: A reporter such as luciferase makes a cellular process visible.
Consider CAGAGACAAUCAUCGACAATT against HMGCS1, for which the median seed-adjusted z-score was inactive: 0.0596.
Next, CCCAAUCCCUAUUUGAGAATT against ADRA1D: inactive: -0.18; CGACAAACCUGGCGUCUAUTT against KLK8: inactive: 0.736; CUGUCGACCUAGACCAUAATT against PHF20: inactive: 0.138.
The result for CGGCAGUGGUUGUAUCAGATT against PRSS16 reads inactive: -0.0226; that for GGCCCGGAUAAAAACCAAATT against SPINK4, inactive: -0.0134; that for ACCUAGAAGUGAACUGUGATT against GP1BA, inactive: 0.0803.
The result for CGCCCAGAAUUGGUCCAAATT against tAKR reads inactive: -0.356.
Take GCUAAGUACAAAUCAUUCATT against FCN1: the median seed-adjusted z-score is inactive: 0.346.
As for ACACGGUUUUUGCACCAAATT against WTIP, the median seed-adjusted z-score was inactive: 0.222.
The result for “GAAUGUACAAUGUACCUCUTT against ST6GALNAC5” reads inactive: -0.0321; that for CUCUCAGACAAGCUACUGATT against CCL27, inactive: 0; that for GAUCCGAGCCUACUAUGAATT against C3, inactive: 0.0281.
As to GGCUUUAGACCUCCACCAUTT against EDN3, the median seed-adjusted z-score is inactive: -0.427.
The result for GGAUAAUGAUCGCGAGGAATT against ALS2 reads inactive: 0; that for CAGUUGUCUGGAUCCAUUUTT against BRAF, inactive: 0.271; that for GCAUCUAUACUCCAAGCGATT against PPP1R16A, inactive: 0.322.
The result for AGAACAUUAUCGACAUUUATT against TRIM54 reads inactive: -0.219; that for AACCUAUAAUGAGGAUGUATT against ZNRF2, inactive: 0.
Next, GCACGCUAUUUUUCUACGATT against TIAM1: inactive: 0.13.
GCUCAAGAGCUUGCACAGATT against SLC25A42: the median seed-adjusted z-score was active: -1.02.
Next, AGAACGUGAGUGACAUUUUTT against POLD2: inactive: 0.97; CUAAUUAGAUGACAGCAAATT against FOXJ1: inactive: -0.553; GACUAUGGAGAAAACGAGATT against CXCR3: inactive: 0.693.
Regarding GCAUUAUGGGUUUUCAGUUTT against GPR18, the median seed-adjusted z-score was inactive: -0.378.
Next, AAAUAAUUAGAAUGAGCAATT against LAIR2: inactive: -0.481.
Next, CGCCCAGAGAUUCACCCAATT against THA1P: inactive: -0.509; CACUGAAUGUGAGAGCUGUTT against HRC: active: 1.06; AAUUUUCCUGUGAUAGAAATT against PATE1: active: 1.21.
Consider GUAAUGUUCUUAAACGAAUTT against PPP2R5C, for which the median seed-adjusted z-score was active: 1.14.
Turning to ACGACUCUUUGGUACCACATT against ATP6AP1, the median seed-adjusted z-score was inactive: 0.358.
As to GCCCUAAACCUGCCGGAAATT against EVX1, the median seed-adjusted z-score was active: 1.
With GAGAGAGAGGGAUAGAAAATT against ANK1, the median seed-adjusted z-score is inactive: -0.282.
For the sequence GAAUCCAGAGUUUCUGUAATT against GRPEL2, the median seed-adjusted z-score was inactive: 0.0821.
Turning to CCCUCUCACCAUUACUUCATT against CRYAB, the median seed-adjusted z-score was inactive: 0.354.
The result for AAAUGAUUCAGCUCCCUUATT against SPRR1B reads inactive: -0.721; that for AUAAAAAGCCUCCUCCAUATT against GLUD2, inactive: -0.0225.
On to CUAUGUAUUCUGCAACAAATT against CTH, for which the median seed-adjusted z-score is inactive: 0.629.
For the sequence CAAUCCUCAUGCUAAACCATT against SGK1, the median seed-adjusted z-score is inactive: -0.659.
Take GGACGAAUGUUUGAGGUCUTT against B3GNTL1: the median seed-adjusted z-score was inactive: 0.
As to CAGUCACCAAGCAAGCUUATT against CTSE, the median seed-adjusted z-score is inactive: -0.1.
For the sequence GGUGGAUCUUCAUACAGUUTT against NAT8B, the median seed-adjusted z-score was inactive: 0.206.
For GAAUCUUACGGGAAGAUCATT against SMAD7, the median seed-adjusted z-score was inactive: -0.25.
Next, GAUUGAUAGAGACAAUUCATT against RNGTT: active: -1.55; AAUCGCUCAUGGUUUUUAATT against LRFN3: inactive: 0.483; GGCUCAACGUAUAAGCGAATT against PIP5K1B: inactive: 0.0917.
For CCAGAAAAAUCAUACAGGATT against ZNF260, the median seed-adjusted z-score is inactive: -0.682.
Regarding CCAACUGUCUUAGUACCCATT against RBM25, the median seed-adjusted z-score was inactive: -0.265.
Next, UGCCCAUGCUGGUUUCAUATT against DAK: inactive: -0.372; GGACGGUAGAAGAUCAAUUTT against MYH13: inactive: 0.612.
Next, GAAGCUACUCCAUAGAUUUTT against INPP4B: inactive: 0.0722.
Regarding GAGUCACAGAAUAGAUUAATT against KLRA1, the median seed-adjusted z-score is inactive: 0.918.
Next, CCAUAUCAGGAUAUCAGGATT against PPIL4: inactive: 0.00225.
Turning to GGGAGAUGCUAACAAGGGATT against ZAK, the median seed-adjusted z-score is inactive: -0.113.
The result for GGCUCCUACUUGAUGGUCATT against PTPRU reads inactive: 0; that for AGAUAAGCAUGGUGCCCAATT against BPI, inactive: 0.
The result for ACACCAGGGUUGUCUACAATT against LCAT reads inactive: 0.526; that for CCAUGAUCAUGAUUGGGAUTT against SLC46A2, inactive: 0.
Turning to CACCGACGGUGAUGGAGAATT against PPP3R2, the median seed-adjusted z-score was inactive: -0.143.
CAGUCUGCCGAAGAAGUAATT against CDC2L1: the median seed-adjusted z-score was active: -1.14.
For the sequence GGGUAUCAGAGGAAAACGATT against KRIT1, the median seed-adjusted z-score was inactive: -0.447.
The result for GUGCUUAAUAUAUCGGAAATT against IL1R1 reads inactive: 0.135; that for GGCUGCACAUAUACCUUAATT against RRN3, inactive: 0.0382.
Turning to GAGCUGCACCUAGAGAUGATT against RBP1, the median seed-adjusted z-score was inactive: 0.321.
For CGACGACCUUCGACUAAAATT against PIP3-E, the median seed-adjusted z-score was inactive: 0.676.
The result for GCUUAUCGGUUGAUCAUCATT against SLC6A4 reads active: 1.43; that for CCCUGCAGGCGAAAAAGAATT against PRRX1, inactive: -0.172.
With GGAUCUAUCUUAACGACCATT against GAN, the median seed-adjusted z-score is active: -1.07.
As for GGCUCUUACGGCUACAAUUTT against HOXB5, the median seed-adjusted z-score was inactive: 0.061.
Next, GCCUGCAAGUGUCCCAAAATT against NTN1: inactive: -0.0419; CGGUGACUGUCCCAACUUUTT against TNFRSF1A: inactive: 0.00772; GGCAUUCGCUUGAACAGCATT against DRG1: inactive: 0.336.
Next, AGAGCAUGUUCAAACUGUATT against EFHD1: inactive: -0.326.
Turning to CACGGACUCCAAAACAGUATT against ST14, the median seed-adjusted z-score was inactive: -0.534.
As to GCCGGACGACGACAUUCUATT against NRGN, the median seed-adjusted z-score is inactive: -0.381.
For the sequence GGACAGUCAUUGAUAGUUATT against XPOT, the median seed-adjusted z-score is inactive: 0.366.
Next, GUACAUGACUAUAUCAGGATT against ANXA5: inactive: 0.268; GGAUUGAAGGUGUUCACUATT against PZP: inactive: -0.878; ACAAUGAUGUCGAUCUGAUTT against BCKDK: inactive: 0.
Consider AGAUACUCACGGACAUUAUTT against COASY, for which the median seed-adjusted z-score was inactive: 0.
Next, GCACUUUAGAAUCACACGATT against TRMT6: inactive: 0.069; GGAGAUCCGUGAUGUAACATT against RUVBL2: inactive: -0.0764.
The result for CACCGAUUCAGGUAUUACATT against PRKRA reads inactive: 0.00259; that for CCAUAUUACAGAGUUCCGATT against ZBTB26, inactive: 0.
The result for GAAUGGUCCUUAUGAACGATT against FAH reads inactive: -0.0836; that for ACAUCAUCAGCAGCCCGAATT against USP32, inactive: 0.484.
Turning to CGAACUGAGCAAUAAGGAATT against CBARA1, the median seed-adjusted z-score was inactive: -0.0426.
Next, GGAUGAGUACAGAUUUACATT against CLPX: inactive: -0.0436.
In the case of CCAUUCAAAUGGAGCACGATT against SIGLEC11, the median seed-adjusted z-score was inactive: -0.395.
The result for GUCCCGAUCUGUGCUCUGATT against DUSP2 reads inactive: 0.576.
The result for CCAAUUCUGUUGUAAAUAATT against CITED1 reads inactive: 0; that for GCAAUAGGAUGGAUGAUCATT against GPSM2, inactive: -0.755; that for CAUCGUCCACAACUACUCATT against EPN1, inactive: 0.
For GGUGGUAAUCAUUACCUUATT against RBKS, the median seed-adjusted z-score is inactive: 0.229.
As to GCAUAUCGCUUACGUUCUATT against USP14, the median seed-adjusted z-score is inactive: 0.
The result for CAAAGUAUCGGGUCAUCUATT against DMRTA1 reads inactive: -0.162; that for GAACGACAAGGAUCAAGAATT against SCG2, inactive: 0.155; that for GUGGGACCCUGAGUACUUATT against MIER1, inactive: 0.0271.
GGAUAUCGCACUUCACUCATT against ELL: the median seed-adjusted z-score is inactive: -0.497.
Consider CGAUGUCUAGAGAACAGCATT against LAMB1, for which the median seed-adjusted z-score was active: 1.07.
The result for GCAGUCCCACAUCAUCUCATT against SLC25A37 reads inactive: -0.0821; that for GCCUGUGAAUGUCCGAGAATT against AARSD1, inactive: -0.156.
The result for CCACGUCUAAAGUCCGAAATT against KIF3C reads inactive: 0.0126; that for GAAGGUUGAUUAUCGUAAATT against BCMO1, inactive: 0.53; that for CGAAGCUAGUGGAACAGUATT against SF3A1, active: -1.09.
As for CACCGAGUGAUGGUCCUUUTT against 2-Mar, the median seed-adjusted z-score was inactive: 0.335.
Next, GCAGUUGGUGGAGCGAUUATT against USP7: inactive: 0.105; GCAUUCGAAUUAUAGAACATT against SLC16A14: inactive: 0.464; CAGAAUAUCUGUUUAAGUUTT against TFDP3: inactive: -0.135.
